Article PMC10483223
No constants are given. Whether binding was seen depends on the method and setting. In cells and extracts the contact can be indirect. Some entries that bind do so weakly or less than the wild type. For part of these data: Tags and fused reporters may be left off the sequences shown.

Protein sequences, listed by entry. Tags and fused reporters are not part of them.
UniProt P48643: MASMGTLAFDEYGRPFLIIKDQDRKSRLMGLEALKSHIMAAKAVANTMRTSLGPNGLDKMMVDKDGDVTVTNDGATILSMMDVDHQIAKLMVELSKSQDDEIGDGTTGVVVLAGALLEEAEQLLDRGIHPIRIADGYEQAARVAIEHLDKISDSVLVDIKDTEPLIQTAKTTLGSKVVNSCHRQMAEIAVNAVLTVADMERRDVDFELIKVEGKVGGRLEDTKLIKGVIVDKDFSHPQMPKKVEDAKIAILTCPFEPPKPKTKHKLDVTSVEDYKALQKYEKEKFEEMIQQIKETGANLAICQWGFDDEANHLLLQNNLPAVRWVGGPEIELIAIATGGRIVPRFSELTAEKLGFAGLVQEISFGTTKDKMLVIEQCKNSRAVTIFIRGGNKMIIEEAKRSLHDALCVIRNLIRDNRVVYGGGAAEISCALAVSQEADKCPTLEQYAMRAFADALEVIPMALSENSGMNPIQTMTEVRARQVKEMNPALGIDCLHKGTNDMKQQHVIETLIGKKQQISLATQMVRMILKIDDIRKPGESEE

How the values were obtained:
Test in all cases: co-IP; HEK293T transfected with Flag-WDTC1, its truncates or vector alone; immunoprecipitation with anti-Flag M2 beads; endogenous CCT1 and CCT5 detected by blot
[1] = target: T1, M2 truncate (aa 1-343) of WDTC1 (mouse) (UniProt Q80ZK9)
T1 sequence: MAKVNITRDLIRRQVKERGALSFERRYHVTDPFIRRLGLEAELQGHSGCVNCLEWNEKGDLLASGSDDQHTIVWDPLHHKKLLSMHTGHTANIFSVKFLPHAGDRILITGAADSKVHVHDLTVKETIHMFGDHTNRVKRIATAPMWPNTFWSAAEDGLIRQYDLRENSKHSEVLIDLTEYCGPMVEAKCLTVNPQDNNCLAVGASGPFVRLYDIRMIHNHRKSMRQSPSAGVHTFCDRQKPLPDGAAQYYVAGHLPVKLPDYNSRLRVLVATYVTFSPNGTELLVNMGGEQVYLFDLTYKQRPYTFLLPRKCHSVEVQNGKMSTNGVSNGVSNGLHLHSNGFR

[2] = target: T2, M1 truncate (aa1-241) of WDTC1 (mouse) (UniProt Q80ZK9)
T2 sequence: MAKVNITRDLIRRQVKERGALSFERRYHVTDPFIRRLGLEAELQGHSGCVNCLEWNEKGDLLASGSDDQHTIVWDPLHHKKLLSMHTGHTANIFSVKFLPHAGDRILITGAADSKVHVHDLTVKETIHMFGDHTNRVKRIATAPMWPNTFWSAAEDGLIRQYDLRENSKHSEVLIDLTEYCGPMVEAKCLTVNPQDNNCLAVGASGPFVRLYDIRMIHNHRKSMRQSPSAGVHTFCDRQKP

[3] = target: T3, Flag-tagged WDTC1 (mouse) (UniProt Q80ZK9)
T3 sequence: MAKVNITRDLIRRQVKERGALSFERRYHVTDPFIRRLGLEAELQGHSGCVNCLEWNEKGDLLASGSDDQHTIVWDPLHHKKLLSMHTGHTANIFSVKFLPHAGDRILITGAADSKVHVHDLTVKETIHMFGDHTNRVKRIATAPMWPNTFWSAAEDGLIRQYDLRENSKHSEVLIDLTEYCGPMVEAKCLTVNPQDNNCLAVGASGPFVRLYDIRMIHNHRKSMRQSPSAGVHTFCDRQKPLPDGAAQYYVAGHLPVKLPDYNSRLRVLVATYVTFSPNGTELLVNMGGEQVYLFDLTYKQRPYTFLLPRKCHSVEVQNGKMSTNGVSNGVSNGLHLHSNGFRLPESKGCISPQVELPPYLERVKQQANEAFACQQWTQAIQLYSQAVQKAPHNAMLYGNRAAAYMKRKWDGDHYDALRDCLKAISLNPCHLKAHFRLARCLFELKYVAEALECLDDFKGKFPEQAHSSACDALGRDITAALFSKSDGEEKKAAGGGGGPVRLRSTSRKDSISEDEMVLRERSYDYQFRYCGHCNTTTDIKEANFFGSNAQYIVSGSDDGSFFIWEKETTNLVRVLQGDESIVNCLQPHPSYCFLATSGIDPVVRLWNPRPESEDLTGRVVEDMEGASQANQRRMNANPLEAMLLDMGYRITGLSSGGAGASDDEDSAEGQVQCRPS

binding [1]: binds | binding [2]: binds weakly | binding [3]: binds
Substance: endogenous CCT5 (from UniProt P48643 1-541)
